Experimental data taken from PubChem BioAssay AID2685 (National Center for Advancing Translational Sciences (NCATS), 2010).
This is one part of the list. Further columns of the screen follow, without active or inactive calls. The list favours compounds with an active or inconclusive main result. Potencies come from curve fits of mixed quality, noted in brackets.

Assay: qHTS Assay for Lipid Storage Modulators in Drosophila S3 Cells;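 on cell number change: cells counted by Cell Tracker Red CMTPX staining in the red channel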
Details: BODIPY lipid droplet fluorescence, 18-24 h; for cell number change: measured here: cell count max response, cells fed with added oleic acid
How it was run: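 Drosophila S3 cells loaded with oleic acid (400 uM, as added) and compounds at several concentrations; lipid droplets imaged by 488-nm laser-scanning cytometry, 500–530 nm intensity and object ratio to cell channel. Percent activity normalized to 20 uM Triacsin C.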

[1] = measured here: cell number channel AC50, cells fed with added oleic acid
[2] = measured here: lipid fluorescence (Fed channel) AC50, cells fed with added oleic acid

| Structure (SMILES) | cell number change [%] | AC50 [1] | AC50 [2] |
| --- | --- | --- | --- |
| Cc1ccc(C(=O)Nc2ccc(N3CCN(S(C)(=O)=O)CC3)cc2)cc1 | -73.5 | 29.1 µM [falling, single point] | 10.3 µM [falling, single point] |
| CCCC(=O)Nc1ccc(-c2nc3cc(C)ccc3o2)cc1 | -11.6 | – | 2.06 µM [rising, partial curve] |
| Cc1cc(=O)oc2cc(NC(=O)C(C)Oc3ccc(F)cc3)ccc12 (configuration not stated) | 41.7 | 11.6 µM [rising, partial curve] | 20.6 µM [rising, single point] |
| CC(C)c1nn2c(=O)cc(COc3cccc(NC(=O)c4ccco4)c3)nc2s1 | – | – | 6.51 µM [falling, full curve] |
| CCCCOC(=O)CSC1=C(C#N)C(c2cccnc2)C(C(=O)OCC)=C(c2ccccc2)N1 (configuration not stated) | 4.75 | 1.3 µM [rising, full curve, poor fit] | – |
| CC1CCN(c2ccc(-c3ccc(NC(=O)c4ccco4)cc3)nn2)CC1 | 22.8 | – | 16.4 µM [rising, partial curve, poor fit] |
| COc1ccc(S(=O)(=O)Nc2ccc(-c3ccc(N4CCCC4)nn3)cc2)cc1C | 7.07 | 4.11 µM [rising, single point] | – |
| O=C(Nc1ccccc1)OCc1cc(-c2ccccc2Cl)on1 | 18.2 | – | 6.51 µM [rising, single point] |
| O=C(Nc1ccc(N2CCCCCC2)cc1)c1ccc[nH]1 | -11 | – | 0.58 µM [falling, single point] |
| Cc1ccccc1-n1nnnc1SCc1cc(=O)n2ccsc2n1 | 17.7 | 0.231 µM [rising, full curve, poor fit] | 0.116 µM [falling, full curve, poor fit] |
| C/C(=N/Nc1ccc([N+](=O)[O-])cc1)c1ccc(C)cc1C | -53.1 | 20.6 µM [falling, single point] | 16.4 µM [falling, single point] |
| CC1CC(C)CN(S(=O)(=O)N2CCC(C(=O)NCc3ccco3)CC2)C1 (configuration not stated) | -14.2 | – | – |
| Cn1cnc([N+](=O)[O-])c1N=C(N)N | 24.9 | – | – |
| Cc1nnc(N(CCC#N)CCC#N)s1 | 2.34 | 0.00651 µM [falling, full curve, poor fit] | – |
| O=C1NC(c2ccccc2)=CC(c2ccccc2)N1 (configuration not stated) | 19.7 | – | – |
| C=CCCC(=O)Nc1ccc(COC(=O)N2CCOCC2)cc1 | 6.71 | – | 1.03 µM [falling, full curve] |
| CC(=O)N1/C(=C/c2ccc(N(C)C)cc2)C(=O)c2ccccc21 | -5.91 | – | – |
| CCc1nc(NCc2ccc3c(c2)OCO3)c2oc3ccccc3c2n1 | -19.7 | – | 0.461 µM [rising, single point] |
| Cc1ccc(-n2ncc(C#N)c2/N=C/N(C)C)cc1 | 55.8 | 6.51 µM [rising, partial curve, poor fit] | 0.103 µM [rising, full curve] |

A portion taken from the entries so far:

| Structure (SMILES) | cell number change [%] | AC50 [1] | AC50 [2] |
| --- | --- | --- | --- |
| CC(=O)N1/C(=C/c2ccc(N(C)C)cc2)C(=O)c2ccccc21 | -5.91 | – | – |
| CCc1nc(NCc2ccc3c(c2)OCO3)c2oc3ccccc3c2n1 | -19.7 | – | 0.461 µM [rising, single point] |
| Cc1ccc(-n2ncc(C#N)c2/N=C/N(C)C)cc1 | 55.8 | 6.51 µM [rising, partial curve, poor fit] | 0.103 µM [rising, full curve] |

Continued.

| Structure (SMILES) | cell number change [%] | AC50 [1] | AC50 [2] |
| --- | --- | --- | --- |
| Cc1nn(Cc2c(Cl)cccc2Cl)c(C)c1N | 10.6 | 6.51 µM [falling, single point] | 3.66 µM [falling, single point] |
| O=C1CCCC2=C1C(c1ccc(O)c(O)c1)c1c(ccc3ncccc13)N2 (configuration not stated) | -61.9 | 29.1 µM [falling, single point] | – |
| O=C1c2ccccc2C(Nc2cccc(C(F)(F)F)c2)N1Cc1ccco1 (configuration not stated) | – | 6.51 µM [rising, single point] | 0.116 µM [rising, full curve, poor fit] |
| O=C(CCl)N1N=C(c2ccco2)CC1c1ccco1 (configuration not stated) | -5.56 | – | 20.6 µM [falling, partial curve] |
| COc1ccc(CN2C(=O)CC(C(=O)NCCc3ccc(S(N)(=O)=O)cc3)SC2=Nc2ccccc2)cc1 (configuration not stated) | -3.15 | – | – |
| CC(C)C[C@H](NC(=O)OC(C)(C)C)C(=O)N[C@@H](CO)[C@H](O)[C@@H]1C[C@@H]1C(=O)NC1CCCCC1 | 0.971 | – | – |
| CCCCn1c(C)nc2cc(S(=O)(=O)N3CCOCC3)ccc21 | -34.6 | 29.1 µM [falling, single point] | 29.1 µM [falling, single point] |
| C=CCN1c2ccccc2[C@]23C[C@@H](C(=O)OC)N(C(=O)c4ccc(Br)cc4)C2=NC(C(=O)OC)=C(C(=O)OC)[C@H]13 | -54.9 | 6.51 µM [falling, partial curve] | 9.2 µM [falling, partial curve] |
| N#Cc1c(C(F)(F)F)cc(-c2ccccc2Cl)[nH]c1=O | -41 | 7.31 µM [falling, partial curve] | 9.2 µM [falling, partial curve] |
| COc1ccccc1OCC(O)CO (configuration not stated) | – | – | 2.91 µM [rising, partial curve] |
| COC(=O)c1[nH]c2ccc(F)cc2c1NC(=O)CCN1CC(C)OC(C)C1 (configuration not stated) | -10.7 | – | – |
| Cc1cc(NC(=O)COC(=O)c2cc([N+](=O)[O-])ccc2N2CCOCC2)ccc1Br | 15.1 | 1.64 µM [rising, partial curve] | 1.03 µM [rising, full curve] |
| CCn1c(/C=C2\C(=O)N(C)c3ccccc32)nc2ccccc2c1=O | 3.29 | – | – |
| O=S(=O)(NCC(c1cccnc1)N1CCN(c2ccccc2)CC1)c1cccs1 (configuration not stated) | 21.6 | 0.116 µM [rising, full curve, poor fit] | 1.3 µM [rising, full curve] |
| c1ccc(C(c2nnnn2C2CCCC2)N2CCCCCC2)nc1 (configuration not stated) | -13.5 | – | – |
| O=[N+]([O-])c1ccc(CN2CCN(c3ccc4ccccc4n3)CC2)cc1 | 16.1 | – | 0.517 µM [rising, full curve, poor fit] |
| Cc1cc(=O)c(C(=O)O)nn1-c1ccccc1C(F)(F)F | 7.26 | – | 6.51 µM [rising, single point] |
| O=C(Cn1ncc(N2CCOCC2)c(Br)c1=O)c1ccc(Cl)cc1 | 14 | 4.61 µM [falling, single point] | 3.26 µM [falling, single point] |
| CC(=O)Nc1sc(/C(C#N)=C/c2ccc(Cl)c(Cl)c2)nc1-c1ccc(C)cc1 | -71.2 | 8.2 µM [falling, partial curve] | 29.1 µM [falling, partial curve, poor fit] |

| Structure (SMILES) | cell number change [%] | AC50 [1] | AC50 [2] |
| --- | --- | --- | --- |
| CCN1C(=O)C(=O)N(CC(=O)Nc2ccccc2Oc2ccccc2)C1=O | 54.4 | 5.8 µM [rising, full curve, poor fit] | 6.51 µM [rising, full curve] |
| Cc1ccc(N(C(=O)CC2NC(=O)NC2=O)C2(C(=O)NC3CCCC3)CCCCC2)cc1 (configuration not stated) | – | 0.58 µM [falling, single point] | – |
| CCN(CC)CCNC(=O)c1cccc(NC(=O)C(=O)c2ccccc2NC(C)=O)c1 | -49.4 | 32.6 µM [falling, partial curve, poor fit] | – |
| Cc1ccc(S(C)=O)cc1-n1c(=O)n(Cc2ccccc2)c(=O)c2[nH]cnc21 (configuration not stated) | 4.17 | – | 29.1 µM [falling, single point] |
| Cc1cc(NC(=O)CN2CCN(c3cccc(Cl)c3)CC2)no1 | -14 | – | – |
| Nc1c(-c2ccccc2)cnn1C1CCS(=O)(=O)C1 (configuration not stated) | -18.8 | 6.51 µM [falling, partial curve, poor fit] | 0.731 µM [rising, full curve, poor fit] |
| COc1cc2nc(NC(=O)c3ccc(Cl)cc3)sc(=O)c2cc1OC | 47.5 | 13 µM [rising, partial curve, poor fit] | 20.6 µM [rising, single point] |
| CN1CCN(CC(=O)Nc2sc3c(c2C#N)CCC(C(C)(C)C)C3)CC1 (configuration not stated) | -26.3 | 0.651 µM [falling, full curve, poor fit] | 0.651 µM [falling, single point] |
| Cc1ccccc1OCC(=O)N1CCCc2ccccc21 | -33.3 | 29.1 µM [falling, single point] | 20.6 µM [rising, single point] |
| CCOc1ccccc1NC(=O)CCn1nc(C)c(S(=O)(=O)N2CCCCC2)c1C | 0.306 | – | – |
| COc1ccccc1NC(=O)CSc1nc(=O)n(CCN(C)C)c2c1CCCC2 | -25 | 1.64 µM [falling, single point] | – |
| Cc1ccc(C(C)C)c(OCC(=O)NN=C2CCCC2)c1 | -13.2 | – | 6.51 µM [rising, partial curve, poor fit] |
| O=C(CSc1ncccn1)NC(=O)NCc1ccco1 | – | 6.51 µM [falling, single point] | 6.51 µM [falling, single point] |
| CC(C)(C)OC(=O)NNC1CC(=O)N(c2ccccc2F)C1=O (configuration not stated) | 101 | 23.1 µM [rising, single point] | – |
| CC1CCN(C(=O)Cn2cc3c(n2)CCCC3)CC1 | -31.7 | 29.1 µM [falling, single point] | 29.1 µM [falling, single point] |
| COc1ccc(S(=O)(=O)N(CC(=O)NC2CC2)Cc2ccccc2)cc1 | -2.52 | – | – |
| COc1ccccc1C(=O)NCC(=O)OCCCOC(=O)CNC(=O)c1ccccc1OC | -26.7 | – | 32.6 µM [falling, single point] |
| COc1ccccc1NS(=O)(=O)c1cccc(C(=O)N/N=C/c2ccc(OCC(=O)O)cc2)c1 | 51.9 | 29.1 µM [rising, single point] | – |
| Cc1cc(NC(=O)c2ccccc2Oc2ccccc2)no1 | – | 2.31 µM [rising, single point] | – |
